From patent US20030118636A1, “Delivery of small hydrophilic molecules packaged into lipid vesicles” (priority 2001, published 2003)

Experiment: Subcutaneous pH reduction in conscious rats
Type: in vivo, rat
Conditions: 0.5 ml, pH 6.1, s.c.

Compound: O=S(=O)(O)CCN1CCOCC1 [MES buffer]
- time for subcutaneous pH to return to physiological pH (pH 7.4) (50 mM MES): ≤ 10 min
- time for subcutaneous pH to return to physiological pH (pH 7.4) (100 mM MES): ≤ 10 min
- time subcutaneous pH remained below pH 6.5 (250 mM MES): more than 30 min
